Source: article PMC5636114 (PLoS ONE, 2017)
No constants are given. Whether binding was seen depends on the method and setting. For part of these data: Binding seen in cells or lysates may run through a third protein. Some results given as binding are weak or reduced against the parent protein; the word gives no strength.

The chains behind the UniProt entries cited, without tags or fusion partners. Where a name states a change or a piece, a line headed by the entry shows the natural chain unless it says otherwise. A line that says so, or that is headed by a name, gives the form on record, which may keep a tag or linker. Residues count along the entry.
UniProt P83369, residues 23-130: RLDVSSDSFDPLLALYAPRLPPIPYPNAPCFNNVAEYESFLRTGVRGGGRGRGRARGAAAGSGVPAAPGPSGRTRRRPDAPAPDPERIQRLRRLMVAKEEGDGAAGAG
FLASH NTD C54S/C83A/K88A/K92A/K95A without tag, co-expressed with His-tagged Lsm11 NTD (Q9UKL3, form named): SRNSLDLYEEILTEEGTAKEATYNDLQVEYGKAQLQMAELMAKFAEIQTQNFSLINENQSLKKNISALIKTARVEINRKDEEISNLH
FLASH NTD C54S/C83A/Y73A/L76A/Y80A without tag, co-expressed with His-tagged Lsm11 NTD (Q9UKL3, form named): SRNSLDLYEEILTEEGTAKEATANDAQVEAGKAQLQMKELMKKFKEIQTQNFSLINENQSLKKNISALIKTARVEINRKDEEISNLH

Assays:
[1] = target: Lsm11 NTD (residues 23-130), N-terminally hexahistidine-tagged (UniProt P83369); test: pull-down; His-tagged Lsm11 NTD and untagged FLASH NTD co-expressed in E. coli (5 mL LB), co-purified on Ni-NTA agarose beads, SDS-PAGE
[2] = target: Lsm11 NTD (residues 23-130), N-terminally hexahistidine-tagged (UniProt P83369); test: AUC; sedimentation velocity (42,000 rpm) and equilibrium, 20 C, 20 mM Tris (pH 8.5), 250 mM NaCl, 5 mM DTT (low-salt condition), 0.05 to 1 mg/ml (complex also 8 mg/ml); global fit by SEDPHAT: monomer-dimer self-association (dimer to monomers) or A + B <-> AB hetero-association; both purified

In the case of “FLASH NTD C54S/C83A/K88A/K92A/K95A without tag, co-expressed with His-tagged Lsm11 NTD (from UniProt Q9UKL3 51-137) (domain or fragment)”, the binding [1] is reported as “binds”.
In the case of “FLASH NTD C54S/C83A/Y73A/L76A/Y80A without tag, co-expressed with His-tagged Lsm11 NTD (from UniProt Q9UKL3 51-137) (domain or fragment)”, the binding [1] is reported as “binds”.
With “Lsm11 NTD (residues 23-130), N-terminally hexahistidine-tagged (from UniProt P83369 23-130) (domain or fragment)” the binding [2] was “no binding (tested: 0.8 mg/ml)”.
